{
  "sequences": {"note": "Chains of the proteins cited; added tags and fusions are not shown. Lines headed by an entry give the natural chain unless they say otherwise; changes in a name come on top.", "UniProt Q15366, whole entry, looked up": "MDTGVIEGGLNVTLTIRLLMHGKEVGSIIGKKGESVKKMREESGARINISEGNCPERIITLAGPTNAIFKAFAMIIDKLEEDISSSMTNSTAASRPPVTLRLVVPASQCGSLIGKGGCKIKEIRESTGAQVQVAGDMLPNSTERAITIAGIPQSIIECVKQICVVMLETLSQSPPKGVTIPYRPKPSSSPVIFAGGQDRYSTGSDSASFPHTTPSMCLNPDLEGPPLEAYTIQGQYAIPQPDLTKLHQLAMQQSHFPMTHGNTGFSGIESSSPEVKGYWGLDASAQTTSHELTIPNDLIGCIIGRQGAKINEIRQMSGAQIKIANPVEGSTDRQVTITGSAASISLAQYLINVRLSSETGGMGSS", "UniProt O15212, whole entry, looked up": "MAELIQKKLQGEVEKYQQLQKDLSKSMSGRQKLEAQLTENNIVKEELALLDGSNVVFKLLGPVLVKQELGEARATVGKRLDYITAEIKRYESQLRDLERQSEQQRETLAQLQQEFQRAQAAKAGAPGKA", "UniProt Q9NTI5": "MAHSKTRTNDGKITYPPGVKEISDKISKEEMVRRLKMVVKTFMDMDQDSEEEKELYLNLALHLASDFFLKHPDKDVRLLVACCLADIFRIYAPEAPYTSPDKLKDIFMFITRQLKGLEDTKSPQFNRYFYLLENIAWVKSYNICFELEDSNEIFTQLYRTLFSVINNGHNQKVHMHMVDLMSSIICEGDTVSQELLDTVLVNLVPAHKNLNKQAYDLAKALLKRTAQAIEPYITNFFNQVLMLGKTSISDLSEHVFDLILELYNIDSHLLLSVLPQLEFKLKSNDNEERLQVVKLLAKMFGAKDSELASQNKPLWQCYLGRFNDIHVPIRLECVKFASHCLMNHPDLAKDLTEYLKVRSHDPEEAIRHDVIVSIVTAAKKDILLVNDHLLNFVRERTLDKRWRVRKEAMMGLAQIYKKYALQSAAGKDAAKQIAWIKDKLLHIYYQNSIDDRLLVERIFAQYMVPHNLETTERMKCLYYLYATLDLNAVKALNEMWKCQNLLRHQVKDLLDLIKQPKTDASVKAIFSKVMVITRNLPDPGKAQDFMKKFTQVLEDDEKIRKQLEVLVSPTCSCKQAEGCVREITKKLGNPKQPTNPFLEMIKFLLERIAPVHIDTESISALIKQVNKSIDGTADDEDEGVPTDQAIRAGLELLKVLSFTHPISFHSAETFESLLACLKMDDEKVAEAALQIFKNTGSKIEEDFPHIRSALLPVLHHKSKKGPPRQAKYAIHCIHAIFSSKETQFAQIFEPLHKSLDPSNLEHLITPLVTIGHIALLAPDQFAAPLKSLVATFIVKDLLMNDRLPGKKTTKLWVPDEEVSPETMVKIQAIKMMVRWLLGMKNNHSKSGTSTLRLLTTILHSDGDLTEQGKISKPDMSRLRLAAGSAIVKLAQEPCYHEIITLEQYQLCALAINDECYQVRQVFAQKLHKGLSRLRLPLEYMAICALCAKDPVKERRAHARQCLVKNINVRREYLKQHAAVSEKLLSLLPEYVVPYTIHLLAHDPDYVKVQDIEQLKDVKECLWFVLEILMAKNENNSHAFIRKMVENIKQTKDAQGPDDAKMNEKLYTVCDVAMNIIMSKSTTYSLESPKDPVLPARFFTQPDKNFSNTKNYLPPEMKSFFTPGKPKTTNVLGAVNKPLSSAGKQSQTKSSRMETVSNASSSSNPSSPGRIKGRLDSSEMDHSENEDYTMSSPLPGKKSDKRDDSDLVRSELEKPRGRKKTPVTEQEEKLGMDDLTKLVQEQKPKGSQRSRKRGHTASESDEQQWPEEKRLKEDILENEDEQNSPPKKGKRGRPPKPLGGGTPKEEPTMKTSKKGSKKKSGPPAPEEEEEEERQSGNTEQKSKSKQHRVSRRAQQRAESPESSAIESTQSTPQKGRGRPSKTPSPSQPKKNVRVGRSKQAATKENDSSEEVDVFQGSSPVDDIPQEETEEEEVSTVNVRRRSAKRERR", "UniProt P12955": "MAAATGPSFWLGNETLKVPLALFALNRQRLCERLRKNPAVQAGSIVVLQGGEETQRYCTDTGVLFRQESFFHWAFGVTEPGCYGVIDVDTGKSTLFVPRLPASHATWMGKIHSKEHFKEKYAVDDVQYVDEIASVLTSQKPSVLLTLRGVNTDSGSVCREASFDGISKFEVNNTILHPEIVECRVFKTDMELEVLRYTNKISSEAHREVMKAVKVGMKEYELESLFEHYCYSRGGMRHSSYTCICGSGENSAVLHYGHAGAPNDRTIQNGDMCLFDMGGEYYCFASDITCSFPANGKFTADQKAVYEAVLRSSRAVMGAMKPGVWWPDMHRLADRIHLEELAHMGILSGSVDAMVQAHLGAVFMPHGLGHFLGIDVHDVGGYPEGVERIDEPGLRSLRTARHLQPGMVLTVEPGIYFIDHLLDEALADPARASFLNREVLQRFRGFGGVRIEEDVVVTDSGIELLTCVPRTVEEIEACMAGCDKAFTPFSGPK", "UniProt P61457": "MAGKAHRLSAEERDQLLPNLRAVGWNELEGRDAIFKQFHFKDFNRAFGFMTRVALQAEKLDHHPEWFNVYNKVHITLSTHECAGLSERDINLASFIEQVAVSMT", "UniProt Q6P996": "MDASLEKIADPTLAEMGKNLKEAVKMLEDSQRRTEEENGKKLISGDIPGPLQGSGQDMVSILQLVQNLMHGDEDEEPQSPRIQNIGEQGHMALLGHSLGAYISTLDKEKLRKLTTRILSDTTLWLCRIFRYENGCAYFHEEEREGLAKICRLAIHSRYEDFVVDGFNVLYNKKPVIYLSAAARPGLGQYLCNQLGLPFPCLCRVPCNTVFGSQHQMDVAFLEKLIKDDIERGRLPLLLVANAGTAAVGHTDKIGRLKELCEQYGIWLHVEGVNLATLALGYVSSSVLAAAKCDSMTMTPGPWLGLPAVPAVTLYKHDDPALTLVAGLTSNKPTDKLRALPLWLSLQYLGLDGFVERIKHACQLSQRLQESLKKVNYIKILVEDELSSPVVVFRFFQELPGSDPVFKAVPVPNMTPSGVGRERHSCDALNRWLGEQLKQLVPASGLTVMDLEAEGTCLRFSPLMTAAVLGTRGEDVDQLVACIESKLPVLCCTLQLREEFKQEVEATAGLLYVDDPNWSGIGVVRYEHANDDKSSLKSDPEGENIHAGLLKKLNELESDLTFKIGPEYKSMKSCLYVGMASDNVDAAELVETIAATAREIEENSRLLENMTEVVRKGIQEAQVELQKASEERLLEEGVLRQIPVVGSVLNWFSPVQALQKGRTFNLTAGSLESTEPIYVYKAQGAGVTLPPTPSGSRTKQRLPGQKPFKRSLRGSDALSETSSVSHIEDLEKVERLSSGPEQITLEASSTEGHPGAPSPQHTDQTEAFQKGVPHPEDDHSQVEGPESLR", "UniProt Q6ZW49, whole entry, looked up": "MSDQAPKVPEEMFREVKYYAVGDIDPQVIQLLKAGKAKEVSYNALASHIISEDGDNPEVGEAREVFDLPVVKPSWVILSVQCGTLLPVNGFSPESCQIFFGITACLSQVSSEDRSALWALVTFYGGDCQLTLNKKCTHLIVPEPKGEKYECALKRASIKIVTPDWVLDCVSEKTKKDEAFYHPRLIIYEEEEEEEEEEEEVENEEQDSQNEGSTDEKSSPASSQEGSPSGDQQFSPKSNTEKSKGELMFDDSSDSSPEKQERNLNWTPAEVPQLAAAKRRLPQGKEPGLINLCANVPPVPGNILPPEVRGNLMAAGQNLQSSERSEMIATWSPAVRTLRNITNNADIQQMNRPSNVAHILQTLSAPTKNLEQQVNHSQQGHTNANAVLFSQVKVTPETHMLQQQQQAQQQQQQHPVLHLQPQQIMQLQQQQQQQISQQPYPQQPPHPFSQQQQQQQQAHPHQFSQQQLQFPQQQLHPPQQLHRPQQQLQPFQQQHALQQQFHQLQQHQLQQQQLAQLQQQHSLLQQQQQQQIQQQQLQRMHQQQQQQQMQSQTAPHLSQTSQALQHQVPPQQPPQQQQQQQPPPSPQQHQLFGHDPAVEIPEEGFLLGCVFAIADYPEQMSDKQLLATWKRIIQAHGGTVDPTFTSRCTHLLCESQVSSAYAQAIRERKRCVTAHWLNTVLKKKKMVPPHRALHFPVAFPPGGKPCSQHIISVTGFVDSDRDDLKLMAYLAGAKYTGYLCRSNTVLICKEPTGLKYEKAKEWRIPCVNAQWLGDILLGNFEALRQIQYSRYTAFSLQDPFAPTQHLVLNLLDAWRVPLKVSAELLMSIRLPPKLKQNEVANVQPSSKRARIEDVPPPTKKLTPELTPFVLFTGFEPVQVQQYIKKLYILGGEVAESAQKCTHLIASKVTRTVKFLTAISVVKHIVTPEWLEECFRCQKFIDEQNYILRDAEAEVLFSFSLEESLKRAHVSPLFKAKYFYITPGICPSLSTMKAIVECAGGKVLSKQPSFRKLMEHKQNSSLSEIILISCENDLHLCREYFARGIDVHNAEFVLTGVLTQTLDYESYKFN", "UniProt Q460N5, whole entry, looked up": "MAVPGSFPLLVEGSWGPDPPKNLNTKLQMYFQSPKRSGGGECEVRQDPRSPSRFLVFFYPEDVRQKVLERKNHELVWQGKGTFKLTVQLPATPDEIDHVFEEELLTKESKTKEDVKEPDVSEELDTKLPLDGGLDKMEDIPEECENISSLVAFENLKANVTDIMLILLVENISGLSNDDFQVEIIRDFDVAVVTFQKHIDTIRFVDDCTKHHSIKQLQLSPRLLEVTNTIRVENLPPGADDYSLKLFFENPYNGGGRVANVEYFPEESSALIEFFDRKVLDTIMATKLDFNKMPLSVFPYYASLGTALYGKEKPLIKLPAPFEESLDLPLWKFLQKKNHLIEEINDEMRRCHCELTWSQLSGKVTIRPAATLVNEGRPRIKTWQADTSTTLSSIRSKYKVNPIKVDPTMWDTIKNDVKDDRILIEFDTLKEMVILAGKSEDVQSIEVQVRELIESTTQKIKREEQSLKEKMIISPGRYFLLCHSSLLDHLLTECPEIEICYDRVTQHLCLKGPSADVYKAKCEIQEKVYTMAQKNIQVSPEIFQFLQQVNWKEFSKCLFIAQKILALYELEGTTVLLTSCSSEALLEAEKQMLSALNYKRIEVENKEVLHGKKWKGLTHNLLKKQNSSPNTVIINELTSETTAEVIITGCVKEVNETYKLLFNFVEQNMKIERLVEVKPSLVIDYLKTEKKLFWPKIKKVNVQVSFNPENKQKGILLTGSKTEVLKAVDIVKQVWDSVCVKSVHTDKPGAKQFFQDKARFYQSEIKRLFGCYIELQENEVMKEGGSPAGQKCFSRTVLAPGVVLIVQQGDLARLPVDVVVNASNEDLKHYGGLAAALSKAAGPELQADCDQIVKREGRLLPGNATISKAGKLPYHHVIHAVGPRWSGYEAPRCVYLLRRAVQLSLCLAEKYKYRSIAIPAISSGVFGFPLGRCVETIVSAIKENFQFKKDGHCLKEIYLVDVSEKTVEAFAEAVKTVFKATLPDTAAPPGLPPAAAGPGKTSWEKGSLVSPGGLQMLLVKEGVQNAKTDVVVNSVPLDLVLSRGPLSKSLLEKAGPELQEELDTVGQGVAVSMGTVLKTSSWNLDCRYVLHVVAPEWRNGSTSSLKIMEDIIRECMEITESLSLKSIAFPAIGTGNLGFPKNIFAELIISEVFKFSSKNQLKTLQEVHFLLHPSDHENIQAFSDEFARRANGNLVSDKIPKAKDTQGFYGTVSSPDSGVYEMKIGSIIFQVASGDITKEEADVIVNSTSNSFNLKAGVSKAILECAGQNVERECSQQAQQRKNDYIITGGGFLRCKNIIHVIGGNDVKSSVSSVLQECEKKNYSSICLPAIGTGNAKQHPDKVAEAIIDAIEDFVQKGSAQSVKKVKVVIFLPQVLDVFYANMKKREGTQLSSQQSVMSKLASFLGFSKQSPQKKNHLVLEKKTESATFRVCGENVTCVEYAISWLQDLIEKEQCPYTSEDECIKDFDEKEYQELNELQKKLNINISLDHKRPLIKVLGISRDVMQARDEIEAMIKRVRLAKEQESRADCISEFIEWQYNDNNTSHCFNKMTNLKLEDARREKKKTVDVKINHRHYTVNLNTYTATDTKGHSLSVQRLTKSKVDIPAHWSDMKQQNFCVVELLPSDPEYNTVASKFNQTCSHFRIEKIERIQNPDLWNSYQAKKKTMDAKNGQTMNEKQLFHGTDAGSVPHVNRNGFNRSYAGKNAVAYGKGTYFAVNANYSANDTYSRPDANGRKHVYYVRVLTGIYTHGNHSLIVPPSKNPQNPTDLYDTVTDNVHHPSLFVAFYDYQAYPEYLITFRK", "UniProt Q8N5Y8": "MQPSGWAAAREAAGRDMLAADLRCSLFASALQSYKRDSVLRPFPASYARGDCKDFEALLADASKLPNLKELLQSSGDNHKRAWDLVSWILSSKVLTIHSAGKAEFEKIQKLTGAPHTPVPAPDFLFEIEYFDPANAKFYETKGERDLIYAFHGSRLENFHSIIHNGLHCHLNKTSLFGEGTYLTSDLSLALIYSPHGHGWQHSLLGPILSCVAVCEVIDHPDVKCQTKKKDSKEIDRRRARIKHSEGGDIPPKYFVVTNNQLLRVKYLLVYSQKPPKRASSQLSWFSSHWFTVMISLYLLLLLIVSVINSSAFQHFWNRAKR"},
  "source": "the supplement of paper PMC10849652",
  "note": "This is one part of the list.",
  "data": [
    {"compound": "CC1=C(C=C(C=C1)NC(=O)C2=CC(=CC=C2)C(C)(C)C#N)NC3=CC4=C(C=C3)N=CN(C4=O)C", "experiment": "log2 fold change, soluble protein after heating vs DMSO (PISA); higher = thermal stabilisation; K562 lysate, 10 uM; active = over 0.2 and 3.5 SD of the protein, either way, in both replicates (recomputed)", "method_in_brief": "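Log-two fold change in thermal stability relative to solvent controls is reported from duplicates. For each sample, crude K562 extract from dounce-homogenised pellets in PBS pH 7.4 with 1 mM MgCl2, at 1 mg/mL protein, was treated with 10 μM compound for 30 min. Aliquots heated for 3 min across 48°C-58°C were pooled, brought to 0.5% NP-40 at 4°C and cleared at 21,000xg for 90 min. The supernatant was quantified by TMTpro 16plex LC-MS/MS with channel sums equalised.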", "values": [
      {"target": "PDCD2 (UniProt Q16342)", "log2 fold change": "inactive: 0.097"},
      {"target": "PGAM1 (UniProt P18669)", "log2 fold change": "inactive: 0.029"},
      {"target": "PDCD6IP isoform 2 (UniProt Q8WUM4)", "log2 fold change": "inactive: -0.013"},
      {"target": "PC (UniProt P11498)", "log2 fold change": "inactive: -0.035"},
      {"target": "PCBP2 isoform 3 (UniProt Q15366)", "log2 fold change": "inactive: -0.017"},
      {"target": "PCIF1 (UniProt Q9H4Z3)", "log2 fold change": "inactive: -0.033"},
      {"target": "PFDN6 (UniProt O15212)", "log2 fold change": "inactive: 0.078"},
      {"target": "PCYT1A (UniProt P49585)", "log2 fold change": "inactive: -0.076"},
      {"target": "PCBP3 (UniProt P57721)", "log2 fold change": "inactive: 0.053"},
      {"target": "PDS5B (UniProt Q9NTI5)", "log2 fold change": "inactive: -0.025"},
      {"target": "PEBP1 (UniProt P30086)", "log2 fold change": "inactive: 0.024"},
      {"target": "PAXX (UniProt Q9BUH6)", "log2 fold change": "inactive: 0.034"},
      {"target": "PFDN5 (UniProt Q99471)", "log2 fold change": "inactive: 0.116"},
      {"target": "PGAM5 (UniProt Q96HS1)", "log2 fold change": "inactive: 0.032"},
      {"target": "PEX11B (UniProt O96011)", "log2 fold change": "inactive: 0.019"},
      {"target": "PFKL isoform 2 (UniProt P17858)", "log2 fold change": "inactive: -0.018"},
      {"target": "PEPD (UniProt P12955)", "log2 fold change": "inactive: 0.013"},
      {"target": "PEX13 (UniProt Q92968)", "log2 fold change": "inactive: -0.02"},
      {"target": "PCBD1 (UniProt P61457)", "log2 fold change": "inactive: 0.075"},
      {"target": "PARN (UniProt O95453)", "log2 fold change": "inactive: 0.013"},
      {"target": "PARP2 (UniProt Q9UGN5)", "log2 fold change": "inactive: -0.028"},
      {"target": "PELP1 (UniProt Q8IZL8)", "log2 fold change": "inactive: 0.016"},
      {"target": "PDCD10 (UniProt Q9BUL8)", "log2 fold change": "inactive: 0.021"},
      {"target": "PDXDC1 (UniProt Q6P996)", "log2 fold change": "inactive: -0.019"},
      {"target": "PDCL3 (UniProt Q9H2J4)", "log2 fold change": "inactive: -0.016"},
      {"target": "PDF (UniProt Q9HBH1)", "log2 fold change": "inactive: 0.048"},
      {"target": "PAXIP1 (UniProt Q6ZW49)", "log2 fold change": "inactive: -0.013"},
      {"target": "PARP14 (UniProt Q460N5)", "log2 fold change": "inactive: -0.007"},
      {"target": "PDXP (UniProt Q96GD0)", "log2 fold change": "inactive: 0.04"},
      {"target": "PDE12 (UniProt Q6L8Q7)", "log2 fold change": "inactive: 0.002"},
      {"target": "PARP16 isoform 3 (UniProt Q8N5Y8)", "log2 fold change": "inactive: -0.016"},
      {"target": "PFAS (UniProt O15067)", "log2 fold change": "inactive: -0.041"},
      {"target": "PDPR (UniProt Q8NCN5)", "log2 fold change": "inactive: 0.003"}
    ]}
  ]
}
